In experiment [1] the target is T1, C-terminal domain of RimM from Mycobacterium tuberculosis (MtbRimMCTD, residues 101-176), wild type (Mycobacterium tuberculosis strain H37Rv) (UniProt P9WH19).
T1 sequence: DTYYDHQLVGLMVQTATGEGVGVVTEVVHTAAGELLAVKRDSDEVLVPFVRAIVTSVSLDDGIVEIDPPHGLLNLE
The experiment in a line: NMR titration; 1H-15N HSQC at 298 K; mutual equimolar titrations between MtbRimMNTD and MtbRimMCTD, both at 150 uM; 20 mM potassium phosphate pH 7.2, 100 mM KCl, 0.02% NaN3; both purified.

Protein sequences, listed by entry. Tags and fused reporters are not part of them.
UniProt P9WH45: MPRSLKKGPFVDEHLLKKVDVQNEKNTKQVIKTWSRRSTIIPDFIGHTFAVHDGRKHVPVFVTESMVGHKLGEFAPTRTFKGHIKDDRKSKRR

Experiment [2] addresses N-terminal domain of RimM from Mycobacterium tuberculosis (MtbRimMNTD, residues 1-93) (Mycobacterium tuberculosis strain H37Rv) (UniProt P9WH19). Put plainly: NMR titration; 1H-15N HSQC at 298 K, 850 MHz; 500 uM 15N-MtbRimMNTD or 290 uM 15N-MtbRimMCTD titrated with unlabeled MtbS19 to equimolar ratio; 20 mM potassium phosphate pH 7.2, 100 mM KCl, 0.02% NaN3; both purified.
In experiment [3] the target is T1, C-terminal domain of RimM from Mycobacterium tuberculosis (MtbRimMCTD, residues 101-176), wild type (Mycobacterium tuberculosis strain H37Rv). The experiment in a line: NMR relaxation (rotational correlation time from R2/R1); 600 uM 15N-MtbRimMCTD, 298 K, 850 MHz, 20 mM potassium phosphate pH 7.2, 100 mM KCl, 0.02% NaN3; molecular weight estimated from tau-c; both purified.

In experiment [4] the target is N-terminal domain of RimM from Mycobacterium tuberculosis (MtbRimMNTD, residues 1-93) (Mycobacterium tuberculosis strain H37Rv) (UniProt P9WH19). Put plainly: NMR titration; 1H-15N HSQC at 298 K; mutual equimolar titrations between MtbRimMNTD and MtbRimMCTD, both at 150 uM; 20 mM potassium phosphate pH 7.2, 100 mM KCl, 0.02% NaN3; both purified.

These are yes or no findings as the source states them, for the method shown. For some of these results: Tags and fused reporters may be left off the sequences shown.

On to “N-terminal domain of RimM from Mycobacterium tuberculosis (MtbRimMNTD, residues 1-93) (from UniProt P9WH19 1-93) (domain or fragment)”, for which, in experiment [1], the binding result was “no binding (tested: 150 μM, equimolar)”.

Consider “Ribosomal protein S19 from Mycobacterium tuberculosis (MtbS19, residues 1-93) (from UniProt P9WH45 1-93)”, for which the binding result in experiment [2] is “no binding (tested: 500 μM, equimolar)”.

B1: C-terminal domain of RimM from Mycobacterium tuberculosis (MtbRimMCTD, residues 101-176), wild type (domain or fragment)
chain: T1 sequence
notes: A starting Met stands before D101 (Nde I site); Surmise: pET-22b with Xho I adds Leu-Glu before the His6 tag; Theoretical Mw of the recombinant protein printed as 9.28 kDa; 15N-labelled in the NMR titrations, unlabelled in SPR; also called WT MtbRimMCTD; not shown: His6, C-terminal, kept
Consider B1, for which the binding entry in experiment [3] is on record as “no binding (tested: 600 μM)”; in experiment [4], “no binding (tested: 150 μM, equimolar)”.

The values above are taken from PMC8073977, “Structural Basis for the C-Terminal Domain of Mycobacterium tuberculosis Ribosome Maturation Factor RimM to Bind Ribosomal Protein S19” (Biomolecules, 2021).
